Data as given in PubChem BioAssay AID652272 (Drosophila RNAi Screening Center, 2013)
In all, the deposit lists about 21,000 reagents; below is a random part of those that have a named target and a result. Of all reagents, 503 (2.4%) are marked active. 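Raw plate light values, not normalised; calls rest on replicate z-scores that were not deposited; hits include reporter decreases as well as increases.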 Reagent sequences are not shown. Not stated in the record: the amount of reagent, the time to read-out.

Purpose: 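Genome-wide knock-down search for components of Hedgehog signalling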 (primary screen)
Cell system: Drosophila clone 8 (Cl8) cells
Reagents: long dsRNA against Drosophila genes
Measurement: 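Plate reader light from a firefly reporter under a ptc promoter fragment that responds to Hedgehog, with Renilla light as transfection reference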
Reading the numbers: firefly Hh reporter signal: higher = more ptc reporter light; Renilla reference signal: higher = more Renilla control light
Rule for the call: 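Hit when the z-score averaged over two replicates is under -2 or over +3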
Meaning of the calls: active = hit: reporter lowered or raised; inactive = not a hit

CG14377 (GeneID 41649) [DRSC14837] scored firefly Hh reporter signal, replicate 1 = 1.17e5; firefly Hh reporter signal, replicate 2 = 1.02e5; Renilla reference signal, replicate 1 = 4032; Renilla reference signal, replicate 2 = 3108; inactive.
For nmo (GeneID 38890) [DRSC08902], the values are firefly Hh reporter signal, replicate 1 = 1.23e5; firefly Hh reporter signal, replicate 2 = 2.07e5; Renilla reference signal, replicate 1 = 2972; Renilla reference signal, replicate 2 = 8528; inactive.
Against nmo (GeneID 38890) [DRSC11377], the entry reads firefly Hh reporter signal, replicate 1 = 97464; firefly Hh reporter signal, replicate 2 = 73128; Renilla reference signal, replicate 1 = 3456; Renilla reference signal, replicate 2 = 2792; inactive.
For Mau2 (GeneID 41830) [DRSC15550] the deposit lists firefly Hh reporter signal, replicate 1 = 1.07e5; firefly Hh reporter signal, replicate 2 = 87948; Renilla reference signal, replicate 1 = 4203; Renilla reference signal, replicate 2 = 3257; inactive.
With knock-down of CG6216 (GeneID 39257) [DRSC10606], the record shows firefly Hh reporter signal, replicate 1 = 33504; firefly Hh reporter signal, replicate 2 = 84496; firefly Hh reporter signal, replicate 3 = 51581; Renilla reference signal, replicate 1 = 7015; Renilla reference signal, replicate 2 = 3680; inactive.
Cyp4s3 (GeneID 32444) [DRSC20241] gave firefly Hh reporter signal, replicate 1 = 1.55e5; firefly Hh reporter signal, replicate 2 = 3.83e5; Renilla reference signal, replicate 1 = 4961; Renilla reference signal, replicate 2 = 15061; inactive.
After knock-down of CG18823 (GeneID 59184) [DRSC18168] the results were firefly Hh reporter signal, replicate 1 = 71304; firefly Hh reporter signal, replicate 2 = 1.60e5; Renilla reference signal, replicate 1 = 1540; Renilla reference signal, replicate 2 = 6070; inactive.
Against CG11585 (GeneID 32365) [DRSC19410], the entry reads firefly Hh reporter signal, replicate 1 = 59708; firefly Hh reporter signal, replicate 2 = 2.24e5; Renilla reference signal, replicate 1 = 2036; Renilla reference signal, replicate 2 = 9724; inactive.
CG18598 (GeneID 42188) [DRSC15356] gave firefly Hh reporter signal, replicate 1 = 5.76e5; firefly Hh reporter signal, replicate 2 = 68128; Renilla reference signal, replicate 1 = 27552; Renilla reference signal, replicate 2 = 1681; inactive.
edl (GeneID 37149) [DRSC06516] gave firefly Hh reporter signal, replicate 1 = 99692; firefly Hh reporter signal, replicate 2 = 72432; Renilla reference signal, replicate 1 = 4832; Renilla reference signal, replicate 2 = 3098; inactive.
CG13501 (GeneID 37510) [DRSC04146] gave firefly Hh reporter signal, replicate 1 = 74592; firefly Hh reporter signal, replicate 2 = 83795; Renilla reference signal, replicate 1 = 2065; Renilla reference signal, replicate 2 = 6025; inactive.
Depletion of Lectin-galC1 (GeneID 35216) [DRSC03362] gave: firefly Hh reporter signal, replicate 1 = 88825; firefly Hh reporter signal, replicate 2 = 40233; Renilla reference signal, replicate 1 = 2493; Renilla reference signal, replicate 2 = 3788; inactive.
Against spict (GeneID 34681) [DRSC02157], the entry reads firefly Hh reporter signal, replicate 1 = 1.00e5; firefly Hh reporter signal, replicate 2 = 55619; Renilla reference signal, replicate 1 = 4068; Renilla reference signal, replicate 2 = 2217; inactive.
CG32260 (GeneID 317943) [DRSC08084] gave firefly Hh reporter signal, replicate 1 = 1.03e5; firefly Hh reporter signal, replicate 2 = 2.36e5; Renilla reference signal, replicate 1 = 3170; Renilla reference signal, replicate 2 = 8195; inactive.

Records listed so far whose gene name begins with N or n (2):
nmo (GeneID 38890) [DRSC08902] → firefly Hh reporter signal, replicate 1: 1.23e5; firefly Hh reporter signal, replicate 2: 2.07e5; Renilla reference signal, replicate 1: 2972; Renilla reference signal, replicate 2: 8528; activity call: inactive
nmo (GeneID 38890) [DRSC11377] → firefly Hh reporter signal, replicate 1: 97464; firefly Hh reporter signal, replicate 2: 73128; Renilla reference signal, replicate 1: 3456; Renilla reference signal, replicate 2: 2792; activity call: inactive
